About 220 (0.063%) of roughly 350,000 compounds were called active. This list was built around the results that the source calls inconclusive (neither active nor inactive); the mix of calls is not that of the screen. Calls come from the whole dose curve; as a rule, active = well fitted activation curve with a large enough effect; inconclusive = small, poorly fitted or top-dose-only effect; inactive = no such curve, though single readings can be large or run the other way. Potencies of inconclusive entries are doubtful fits and often do not repeat.
Assay: qHTS for Activators of Integrin-Mediated Alleviation for Muscular Dystrophy; note: nearly all actives have a fitted effect of over 60% in size;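 for activation: 100% = response of the positive control SU9516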
Conditions: alpha7betagal myoblasts, beta-gal FDG fluorescence, 48 h; activation: at 38.3 µM (top of the series)
Procedure, shortened: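 alpha7betagal+/- myoblasts (passage 13, 250/well) treated 48 h at 37C with compounds at 1:260 dilution of DMSO stock. Lysed, then beta-galactosidase activity read as FDG fluorescence (ex 480/em 540) after 30 min, with pre-read for autofluorescence.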
Potency is the fitted concentration of half-maximal effect.

| Structure (SMILES) | Potency | activation |
| --- | --- | --- |
| O=C(O)c1ccc2c(c1)C(=O)N(c1ccc(OCc3ccccc3)cc1)C2=O | inconclusive: 1.78 µM [activator, single point] | – |
| CN1CCN(C(=O)c2cc(COc3ccccc3)on2)[C@@H](c2ccccc2)C1 | inconclusive: 2.51 µM [activator, single point] | – |
| C=CCc1ccccc1OCC(=O)NNC(=S)NCc1ccccc1 | inconclusive: 3.16 µM [activator, single point] | – |
| CSc1nc2ccc(NC(=O)c3nn(C(C)C)c(=O)c4ccccc34)cc2s1 | – | inactive: -10.3% |
| CCOC(=O)c1cc([N+](=O)[O-])sc1NC(=O)CC | – | inactive: 17.1% |
| Cn1c(=O)oc2ccccc2c1=O | inconclusive: 3.16 µM [activator, partial curve, poor fit] | – |
| COc1ccc(NC(=O)c2ccc3nc[nH]c3c2)cc1 | inconclusive: 28.2 µM [activator, single point] | – |
| COc1cc(Br)c(CN2C(=O)NC3(CCCCCC3)C2=O)cc1OC | inconclusive: 2 µM [activator, single point] | – |
| CCOC(=O)c1cc(C#N)c(=S)[nH]c1C | inconclusive: 11.2 µM [activator, single point] | – |
| O=C1CCCN1CC(O)CS(=O)(=O)Cc1ccccc1 (stereo not drawn) | inconclusive: 11.2 µM [activator, single point] | – |
| NS(=O)(=O)c1ccc(NC(=O)CN2CCc3ccccc32)cc1 | inconclusive: 11.2 µM [activator, partial curve, poor fit] | – |
| O=C(c1cc(-c2ccc(Cl)cc2)on1)N1CCc2ccccc2C1 | inconclusive: 10 µM [activator, single point] | – |
| CCOC(=O)C1(CC2CC2)CCN(Cc2cnc(-c3ccc(OC)cc3)nc2)CC1 | – | inactive: 12.8% |
| O=C(CCn1c(=O)oc2ccc(Cl)cc21)N1CCN(c2ccccc2)CC1 | inconclusive: 2.82 µM [activator, single point] | – |
| CCCN(CCC)CCN1C(=O)C2C(C(=O)Nc3cccc(SC)c3)C3C=CC2(O3)C1C(=O)NC1CCCCC1 (stereo not drawn) | – | inactive: -52.4% |
| Cc1cnc(NC(=O)CCN2C(=O)C3CCCCC3C2=O)s1 (stereo not drawn) | inconclusive: 28.2 µM [activator, single point] | – |
| Cc1ccccc1NS(=O)(=O)c1ccc(OCC(=O)NCC2CCCO2)cc1 (stereo not drawn) | inconclusive: 12.6 µM [activator, single point] | – |
| CCc1nnc(NC(=O)c2ccc(COc3ccc(C)cc3)o2)s1 | inconclusive: 20 µM [activator, single point] | – |
| O=C(O)c1ccc(N/N=C/c2cc3c(cc2[N+](=O)[O-])OCO3)cc1 | inconclusive: 1 µM [activator, partial curve, poor fit] | – |
| CCN(Cc1ccccc1)C(=O)c1[nH]c2ccc(OC)cc2c1C | inconclusive: 28.2 µM [activator, single point] | – |
| O=C(Nc1ccc(S(=O)(=O)N2CCOCC2)cc1)c1cccs1 | – | inactive: -12% |
| Cc1ccc(C)n1-c1cccc(S(=O)(=O)N2CCOCC2)c1 | – | inactive: -13.2% |

One compound at a time, as listed above.
CN1CCN(C(=O)c2cc(COc3ccccc3)on2)[C@@H](c2ccccc2)C1 in the list: Potency: inconclusive: 2.51 µM [activator, single point]
CCN(Cc1ccccc1)C(=O)c1[nH]c2ccc(OC)cc2c1C in the list: Potency: inconclusive: 28.2 µM [activator, single point]

Continuation.

| Structure (SMILES) | Potency | activation |
| --- | --- | --- |
| O=C(Nc1cccc(NC(=O)c2cccs2)c1)c1ccc(F)cc1 | inconclusive: 2.82 µM [activator, single point] | – |
| CN(c1ccccc1)S(=O)(=O)c1cccc(C(=O)Nc2ncn[nH]2)c1 | – | inactive: -29.2% |
| O=C(Nc1ccc2c(c1)OCO2)Oc1ccccc1 | inconclusive: 35.5 µM [activator, partial curve, poor fit] | – |
| COc1ccccc1NC(=O)COC(=O)c1cnccn1 | inconclusive: 15.8 µM [activator, single point] | – |
| CCN1C(=O)/C(=C\C=C2/C=CC=CN2CC)SC1=S | – | inactive: -23.6% |
| CCOC(=O)c1ccc(-c2ccc(-c3cc(=O)oc4cc(OC)c(OC)c(OC)c34)cc2)cc1 | – | inactive: 0% |
| COC(=O)c1sc(NC(=O)c2ccc([N+](=O)[O-])o2)c(C#N)c1C | inconclusive: 0.501 µM [activator, partial curve, poor fit] | – |
| CN(C)c1ccc(NC(=O)CSc2nc3ccccc3c(=O)n2C2CCCCC2)cc1 | – | inactive: 3.54% |
| CCc1ccc(NS(=O)(=O)c2ccc(C)c(C(=O)N3CCOCC3)c2)cc1 | inconclusive: 1.41 µM [activator, partial curve, poor fit] | – |
| COc1ccc(NC(C)=O)cc1C#N | inconclusive: 4.47 µM [activator, partial curve, poor fit] | – |
| O=C1C2CC=C(Cl)CC2C(=O)N1CCc1c[nH]c2ccccc12 (stereo not drawn) | – | inactive: 24.8% |
| COCCNC(=S)N(CCc1c(C)[nH]c2ccc(F)cc12)Cc1cccnc1 | inconclusive: 5.01 µM [activator, single point] | – |
| CC(C)(C)c1ccc(C(=O)NCC(=O)N2CCNC(=O)C2)cc1 | inconclusive: 2.51 µM [activator, partial curve, poor fit] | – |
| N#Cc1c2n(c(=S)n(-c3ccc(F)cc3)c1=O)CCCCC2 | inconclusive: 5.01 µM [activator, single point] | – |
| C=CCNc1nc2ccccc2nc1NS(=O)(=O)c1ccc(Br)cc1 | inconclusive: 28.2 µM [activator, single point] | – |
| COC(=O)c1ccc(Cn2cnc3c(N)ncnc32)cc1 | inconclusive: 17.8 µM [activator, partial curve, poor fit] | – |
| COc1cccc2sc(NNC(=O)COc3ccccc3)nc12 | inconclusive: 2.82 µM [activator, partial curve, poor fit] | – |
| CN1CCN(C(=O)C2CCC(=O)N(CCc3cccc(F)c3)C2)CC1 (stereo not drawn) | inconclusive: 2.82 µM [activator, partial curve, poor fit] | – |
| CC(=O)Nc1ccc(C(=O)NCC2CCCCC2)cc1 | inconclusive: 2.82 µM [activator, single point] | – |
| O=C(N/N=C/c1coc2ccc(Cl)cc2c1=O)c1ccncc1 | inconclusive: 10 µM [activator, partial curve, poor fit] | – |
| O=C1CC2(CCCC2)C(=O)N1CN1CCN(S(=O)(=O)c2ccc(Cl)c(Cl)c2)CC1 | inconclusive: 2.82 µM [activator, single point] | – |

— PubChem BioAssay AID624291 (National Center for Advancing Translational Sciences (NCATS), 2012)
